Experimental data from paper doi:10.1101/2023.05.06.539678.
No constants are given. Whether binding was seen depends on the method and setting. Binding seen in cells or lysates may run through a third protein. A yes stands for co-enrichment or nearness to the bait. Other partners may have been found. Where a sequence is shown, tags or fusion partners need not be part of it.

Target: T1, EMP3 WT tagged with Myc-glycine-serine linker-BioID2 at the C-terminal end (UniProt P54852)
T1 sequence: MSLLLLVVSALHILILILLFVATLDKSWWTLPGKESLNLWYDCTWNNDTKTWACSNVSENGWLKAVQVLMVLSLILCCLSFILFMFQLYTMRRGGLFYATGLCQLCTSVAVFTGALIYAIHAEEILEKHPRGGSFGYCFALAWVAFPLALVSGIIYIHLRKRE
Assay: proximity labelling

binding: binds
B1: STX12 (protein, UniProt Q86Y82 1-276)
chain: MSYGPLDMYRNPGPSGPQLRDFSSIIQTCSGNIQRISQATAQIKNLMSQLGTKQDSSKLQENLQQLQHSTNQLAKETNELLKELGSLPLPLSTSEQRQQRLQKERLMNDFSAALNNFQAVQRRVSEKEKESIARARAGSRLSAEERQREEQLVSFDSHEEWNQMQSQEDEVAITEQDLELIKERETAIRQLEADILDVNQIFKDLAMMIHDQGDLIDSIEANVESSEVHVERATEQLQRAAYYQKKSRKKMCILVLVLSVIILILGLIIWLVYKTK
